No constants are given. Whether binding was seen depends on the method and setting. In cells and extracts the contact can be indirect. Here binding means that the protein was enriched with, or labelled near, the bait; the list need not be complete.
Legend:
Assay in all cases: affinity purification with mass spectrometry
[1] = molecular target: N-Strep HeV M (Hendra virus matrix protein with N-terminal Strep-tag II) (Hendra virus) (UniProt O89341)
[2] = molecular target: C-Strep HeV M (Hendra virus matrix protein with C-terminal Strep-tag II) (Hendra virus) (UniProt O89341)
[3] = molecular target: Strep-ANP32B (N-terminally Strep-tagged ANP32B) (human) (UniProt Q92688)

Protein sequences, listed by entry. Tags and fused reporters are not part of them. Lines headed by an entry give the natural chain unless they say otherwise; changes in a name come on top.
UniProt Q92688: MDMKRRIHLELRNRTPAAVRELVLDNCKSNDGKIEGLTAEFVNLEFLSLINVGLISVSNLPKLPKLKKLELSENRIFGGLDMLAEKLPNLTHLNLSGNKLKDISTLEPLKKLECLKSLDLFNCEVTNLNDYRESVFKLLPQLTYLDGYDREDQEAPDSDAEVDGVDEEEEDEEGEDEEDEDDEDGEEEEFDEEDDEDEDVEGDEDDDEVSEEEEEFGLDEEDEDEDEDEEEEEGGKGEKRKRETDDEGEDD

Row | Substance | binding [1] | binding [2] | binding [3]
1 | acidic leucine-rich nuclear phosphoprotein 32 family member B (ANP32B), endogenous (from UniProt Q92688-1 1-251) | binds | binds | –
2 | untagged HeV M (Hendra virus matrix protein) (from UniProt O89341 1-352) | – | – | binds
